Measurements published in US20050256056A1, “Peptide inhibitors of HIV” (priority 2003, published 2005).
Some entries share one result that the patent states for a list of compounds. Non-standard residues stand in square brackets, D forms with d. Residues, ends and D or L forms follow the SMILES beside them.

Tested on: SF 162 strain of HIV-1
Conditions: read-out: EC50 against SF 162 strain of HIV-1; SF 162 uses the CCR5 co-receptor

With CC[C@@H](C)[C@@H](NC(=O)[C@@H](Cc1c[nH]c2ccccc12)NC(=O)[C@@H]1CCCN1C(=O)[C@@H](Cc1ccc(O)cc1)NC(=O)[C@@H](CO)NC(=O)[C@H]1CCCN1C(=O)[C@H](N)CCSC)C(=O)N[C@H](CCCNC(=N)N)C(=O)O [compound 16, mpsyPwir] (H-[dM][dP][dS][dY]P[dW][dI][dR]-OH; N-terminus and C-terminus assumed) the EC50 was under 10 µM.
